For this series, the system named is collagen. The series can be described thus: Cryo-SEM measurement of fibril diameters. Conditions: cryo-SEM images at 20,000×. The procedure:
Using a modification of EXAMPLE 18 fibril diameters were measured by 8cryo-SEM. Fibril diameters from cryo-SEM images taken at 20,000× were measured using ImageJ software (NIH). At least 45 fibrils were measured for each treatment. Results are presented as Avg.±S.E. Statistical analysis was performed using DesignExpert software (StatEase) with α=0.05.

On to RRANAALKAGELYKSILYGC, for which the fibril diameter result is “decrease in fibril diameter”.

In the case of SYIRIADTNITGC [Dc13], the fibril diameter entry was “does not affect fibril diameter”.

The values above are taken from patent publication US20180030091A1, “COLLAGEN-BINDING SYNTHETIC PEPTIDOGLYCANS FOR USE IN VASCULAR INTERVENTION” (Purdue Research Foundation, priority 2010, published 2018).
